Laboratory results: PubChem BioAssay AID248 (DTP/NCI, 2004)
The list is a part of this screen's results and no random one: it gathers tests that were run many times, whatever their T/C, doses with no T/C, and many T/C values between a quarter and a half above the control. Other doses and runs of a compound stand elsewhere. T/C is the treated group as % of the vehicle group. Some entries give survivors of the animals treated and no T/C: the source holds a T/C of zero for them, seemingly a mark for toxic or unscored doses. Some doses without a T/C left all or most animals alive at the check, yet need not have been tolerated: the source hardly ever lists a survival T/C far under the control, and the zero likely stands for such cases as well. Counts of survivors are from the toxicity check (mostly the fifth day) where no day follows; animals may have died later. Schedule codes are those of the source, read here as Q, the interval in days (D) or hours (H), X, the number of doses. Some entries were tested several times; their values stand side by side, smallest first. Some schedules carry Z or #; the key to these is not given. For survival time, this PubChem deposit counts one and a half times the control or more as active, and values a quarter to a half above the control carry no call in these data; other NCI protocols may use other cut-offs.

System: L1210 leukemia ip in BDF1 mice, survival T/C
Experiment: NCI In Vivo Anticancer Drug Screen. Data for tumor model L1210 Leukemia (intraperitoneal) in B6D2F1 (BDF1) mice
Details: T/C endpoint: mean survival time, higher T/C = longer survival
[1] = dose: 200.0 mg/kg/injection, schedule: Q01DX001 (ip), vehicle: saline
[2] = dose: 400.0 mg/kg/injection, schedule: Q01DX001 (ip), vehicle: saline
[3] = dose: 200.0 mg/kg/injection, schedule: Q01DX009 (ip), vehicle: Klucel (hydroxypropylcellulose) (HPC)
[4] = dose: 400.0 mg/kg/injection, schedule: Q01DX009 (ip), vehicle: Klucel (hydroxypropylcellulose) (HPC)
[5] = dose: 300.0 mg/kg/injection, schedule: Q01DX001 (ip), vehicle: carboxymethylcellulose (CMC)
[6] = dose: 400.0 mg/kg/injection, schedule: Q04DX003 (ip), vehicle: saline
[7] = dose: 400.0 mg/kg/injection, schedule: Q01DX009 (ip), vehicle: carboxymethylcellulose (CMC)
[8] = dose: 100.0 mg/kg/injection, schedule: Q01DX009 (ip), vehicle: Klucel (hydroxypropylcellulose) (HPC)
[9] = dose: 400.0 mg/kg/injection, schedule: Q04DX003 (ip), vehicle: saline with Tween-80
[10] = dose: 200.0 mg/kg/injection, schedule: Q01DX001 (ip), vehicle: Klucel (hydroxypropylcellulose) (HPC)
[11] = dose: 75.0 mg/kg/injection, schedule: Q01DX001 (ip), vehicle: saline
[12] = dose: 150.0 mg/kg/injection, schedule: Q01DX001 (ip), vehicle: saline
[13] = dose: 300.0 mg/kg/injection, schedule: Q01DX001 (ip), vehicle: saline

SMILES: Oc1ccccc1/C=N/Nc1c2ccccc2nc2ccccc12
- survivor count [1]: 2 of 4

SMILES: CCCCSC(=N)N
- survivor count [1]: 0 of 6
- survivor count [2]: 0 of 6

SMILES: CCCCCCCCCC(=O)NC(=S)Nc1ccc(Br)cc1
- survivor count [3]: 3 of 3
- survivor count [4]: 3 of 3 and 6 of 6

SMILES: c1cc2c(c(OCC3=NCCN3)c1)CCCC2
- survivor count (dose: 200.0 mg/kg/injection, schedule: Q04DX002 (ip), vehicle: saline): 0 of 3
- survivor count (dose: 400.0 mg/kg/injection, schedule: Q04DX002 (ip), vehicle: saline): 0 of 3

SMILES: CC(C)=NNC(=O)Nc1cccc(C)c1C
- survivor count [4]: 0 of 6

SMILES: COc1ccc(COC(=O)Nc2ccccc2)cc1
- survivor count [5]: 0 of 6

SMILES: CC1CCC2(OC1)OC1C(O)C3C4CCC5CC(OC6OC(CO)C(OC7OC(CO)C(O)C(OC8OCC(O)C(O)C8O)C7OC7OC(CO)C(O)C(OC8OC(CO)C(O)C(O)C8O)C7O)C(O)C6O)C(O)CC5(C)C4CCC3(C)C1C2C (configuration not stated)
- survivor count (dose: 50.0 mg/kg/injection, schedule: Q01DX001 (ip), vehicle: saline with Tween-80): 1 of 3
- survivor count (dose: 100.0 mg/kg/injection, schedule: Q01DX001 (ip), vehicle: saline with Tween-80): 0 of 3

SMILES: O=C(COc1cc2ccccc2cc1C(=O)O)NCc1ccc(Cl)cc1
- survivor count [6]: 3 of 6

SMILES: Oc1ccc(-c2ccc(O)c(O)c2)cc1O
- survivor count [5]: 2 of 6

SMILES: COc1ccc(OCC(=O)N2CCCCC2)cc1
- survivor count [7]: 0 of 6

SMILES: Cc1[nH]c(=S)[nH]c(=O)c1CCSC(=N)N
- survivor count [2]: 0 of 6

SMILES: O=C(CI)Nc1ccc(Cl)c(Cl)c1
- survivor count [8]: 1 of 6
- survivor count [3]: 0 of 6
- survivor count [4]: 0 of 6

SMILES: Cc1cc(C(=O)Nc2ccc(C3=NCCN3)cc2)ccc1C(=O)Nc1ccc(C2=NCCN2)cc1
- T/C (dose: 15.0 mg/kg/injection, schedule: Q01DX Z (ip), vehicle: saline): 127 % of control
- T/C (dose: 30.0 mg/kg/injection, schedule: Q01DX Z (ip), vehicle: saline): 144 % of control
- survivor count (dose: 480.0 mg/kg/injection, schedule: Q01DX Z (ip), vehicle: saline): 0 of 6

SMILES: CCCCC(=O)N/N=C\c1ccc(-c2ccccc2)cc1
- survivor count [2]: 2 of 4

SMILES: CN(/N=C/C(O)C(O)C(O)CO)c1ccccc1 (configuration not stated)
- survivor count (dose: 400.0 mg/kg/injection, schedule: Q01DX009 (ip), vehicle: saline): 6 of 6

SMILES: O=C(/C=C/c1cccc(Cl)c1)c1ccc(Cl)cc1
- T/C (dose: 100.0 mg/kg/injection, schedule: Q04DX003 (ip), vehicle: carboxymethylcellulose (CMC)): 87, 92, 94, 103 % of control
- survivor count (dose: 200.0 mg/kg/injection, schedule: Q04DX003 (ip), vehicle: carboxymethylcellulose (CMC)): 3 of 3
- survivor count [7]: 6 of 6
- survivor count (dose: 400.0 mg/kg/injection, schedule: Q04DX003 (ip), vehicle: carboxymethylcellulose (CMC)): 3 of 3

SMILES: O=C1OCC(Cl)=C1Cl
- survivor count (dose: 100.0 mg/kg/injection, schedule: Q04DX003 (ip), vehicle: saline with Tween-80): 3 of 6
- survivor count (dose: 200.0 mg/kg/injection, schedule: Q04DX003 (ip), vehicle: saline with Tween-80): 0 of 6
- survivor count [9]: 0 of 6

SMILES: O=C(Nc1ccc(C2=NCCN2)cc1)c1cc(C(=O)Nc2ccc(C3=NCCN3)cc2)cc([N+](=O)[O-])c1
- T/C (dose: 375.0 mg/kg/injection, schedule: Q01DX Z (ip), vehicle: methylcellulose (MC)): 130 % of control

SMILES: Nc1ncc(CO)c(N)n1
- survivor count [10]: 5 of 6
- survivor count (dose: 400.0 mg/kg/injection, schedule: Q01DX001 (ip), vehicle: Klucel (hydroxypropylcellulose) (HPC)): 0 of 6

SMILES: CCOP(=O)(Oc1ccc([N+](=O)[O-])cc1)c1cccc(Br)c1 (configuration not stated)
- survivor count [11]: 0 of 6
- survivor count [12]: 0 of 6
- survivor count [13]: 0 of 6

SMILES: CCCCCCCCCCCCCCCCCC[n+]1cccc(C#N)c1
- survivor count (dose: 20.0 mg/kg/injection, schedule: Q01DX009 (ip), vehicle: saline): 3 of 6
- survivor count [11]: 0 of 6
- survivor count [12]: 0 of 6
- survivor count [13]: 0 of 6

SMILES: NCc1cc([N+](=O)[O-])ccc1Cl
- survivor count [9]: 4 of 6

SMILES: CCCCCCCCCCCCCCCC[N+](C)(C)c1nc(Cl)nc(Cl)n1
- survivor count (dose: 150.0 mg/kg/injection, schedule: Q04DX003 (ip), vehicle: saline): 3 of 6
- survivor count (dose: 200.0 mg/kg/injection, schedule: Q01DX001 (ip), vehicle: water): 1 of 4
- survivor count (dose: 300.0 mg/kg/injection, schedule: Q04DX003 (ip), vehicle: saline): 0 of 6
- survivor count (dose: 400.0 mg/kg/injection, schedule: Q01DX001 (ip), vehicle: water): 0 of 4

SMILES: NCCCc1nc(N)nc(N)c1-c1ccc(Cl)cc1
- survivor count (dose: 200.0 mg/kg/injection, schedule: Q04DX003 (ip), vehicle: saline): 0 of 6
- survivor count [6]: 0 of 6

SMILES: CCCCCCC(/C=C/C=C/c1ccccc1)=N\O
- survivor count [8]: 6 of 6

SMILES: Clc1nc(Cl)nc(Cl)n1
- survivor count (dose: 400.0 mg/kg/injection, schedule: Q04DX002 (ip), vehicle: other): 1 of 3

SMILES: CC(C)C(/C=N/N=C(N)N)=N\N=C(N)N
- survivor count (dose: 240.0 mg/kg/injection, schedule: Q01DX Z (ip), vehicle: methylcellulose (MC)): 3 of 6
- survivor count (dose: 360.0 mg/kg/injection, schedule: Q01DX Z (ip), vehicle: methylcellulose (MC)): 1 of 6
- survivor count (dose: 480.0 mg/kg/injection, schedule: Q01DX Z (ip), vehicle: methylcellulose (MC)): 0 of 6
- survivor count (dose: 600.0 mg/kg/injection, schedule: Q01DX Z (oral), vehicle: methylcellulose (MC)): 0 of 6
- survivor count (dose: 720.0 mg/kg/injection, schedule: Q01DX Z (oral), vehicle: methylcellulose (MC)): 0 of 6
- survivor count (dose: 840.0 mg/kg/injection, schedule: Q01DX Z (oral), vehicle: methylcellulose (MC)): 0 of 6

SMILES: NC(=O)/C=C/c1c[nH]c2nccnc12
- survivor count (dose: 50.0 mg/kg/injection, schedule: Q01DX009 (ip), vehicle: water): 1 of 6
- survivor count (dose: 100.0 mg/kg/injection, schedule: Q01DX009 (ip), vehicle: water): 0 of 6
- survivor count (dose: 200.0 mg/kg/injection, schedule: Q01DX009 (ip), vehicle: water): 0 of 6
- survivor count (dose: 400.0 mg/kg/injection, schedule: Q01DX009 (ip), vehicle: water): 0 of 6

SMILES: Oc1ccccc1/C=N/c1nc2ccc(Cl)cc2s1.Oc1ccccc1/C=N/c1nc2ccc(Cl)cc2s1.[Zn]
- survivor count [1]: 2 of 3
- survivor count [2]: 0 of 3

SMILES: NS(=O)(=O)c1cc(Br)c2c(c1)S(=O)(=O)NCN2
- T/C [13]: 139 % of control

SMILES: c1csc([Si](c2cccs2)(c2cccs2)c2cccs2)c1
- survivor count (dose: 400.0 mg/kg/injection, schedule: Q04DX002 (ip), vehicle: saline with Tween-80): 3 of 3

SMILES: Cc1cc(NC(=O)Nc2ccc(C3=NCCCN3)cc2)ccc1NC(=O)Nc1ccc(C2=NCCCN2)cc1
- T/C (dose: 8.0 mg/kg/injection, schedule: Q01DX Z (ip), vehicle: water): 128 % of control
- survivor count (dose: 15.0 mg/kg/injection, schedule: Q01DX Z (ip), vehicle: water): 3 of 6
- survivor count (dose: 20.0 mg/kg/injection, schedule: Q01DX Z (ip), vehicle: water): 0 of 6
- T/C (dose: 45.0 mg/kg/injection, schedule: Q01DX009 (ip), vehicle: saline): 147 % of control
- T/C (dose: 65.0 mg/kg/injection, schedule: Q01DX009 (ip), vehicle: saline): 146 % of control

SMILES: CCc1cccc[n+]1Cc1ccccc1
- survivor count (dose: 100.0 mg/kg/injection, schedule: Q01DX009 (ip), vehicle: saline): 0 of 3
- survivor count (dose: 200.0 mg/kg/injection, schedule: Q01DX009 (ip), vehicle: saline): 0 of 3

SMILES: CCCCCCCCCCCCCCCCOc1ccc(Sc2ccc([N+](=O)[O-])cc2)cc1
- survivor count (dose: 100.0 mg/kg/injection, schedule: Q01DX001 (ip), vehicle: Klucel (hydroxypropylcellulose) (HPC)): 6 of 6
- survivor count [10]: 6 of 6
